In US20230073274A1 (NOVELMED THERAPEUTICS, published 2023):
Numbering of substitutions follows the chain as printed. These are yes or no findings as the source states them, for the method shown. Some binding calls cover weakened binding; strength is not graded here.

Protein sequences, listed by entry. Tags and fused reporters are not part of them. Residues count along the entry.
UniProt P27918, residues 28-469: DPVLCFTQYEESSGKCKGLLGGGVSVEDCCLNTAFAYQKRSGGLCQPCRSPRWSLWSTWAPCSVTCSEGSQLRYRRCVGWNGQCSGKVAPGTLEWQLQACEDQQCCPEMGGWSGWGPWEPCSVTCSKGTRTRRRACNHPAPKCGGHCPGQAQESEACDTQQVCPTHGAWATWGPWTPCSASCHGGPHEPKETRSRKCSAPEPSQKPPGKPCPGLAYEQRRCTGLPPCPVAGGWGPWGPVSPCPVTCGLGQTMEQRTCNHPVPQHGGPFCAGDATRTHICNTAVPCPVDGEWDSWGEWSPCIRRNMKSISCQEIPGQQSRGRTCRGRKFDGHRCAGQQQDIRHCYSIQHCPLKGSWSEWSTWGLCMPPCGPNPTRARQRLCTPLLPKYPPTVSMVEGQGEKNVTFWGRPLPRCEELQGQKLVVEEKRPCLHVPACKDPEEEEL

Key:
[1] = molecular target: T1, human properdin (human, UniProt P27918 28-469); experiment: ELISA, human properdin coated on plate (FIG. 20)
[2] = molecular target: T1, human properdin; experiment: ELISA, human properdin coated on the plate, OD 450 nm
[3] = molecular target: T1, human properdin; experiment: properdin binding assay (FIG. 31)
[4] = molecular target: T1, human properdin; experiment: ELISA, properdin coated on the plate, OD 450 nm
[5] = molecular target: T1, human properdin; experiment: ELISA on properdin (sheet title: Potency Binding; axes without labels)
[6] = molecular target: T1, human properdin; experiment: properdin binding assay (FIG. 36)
[7] = molecular target: T1, human properdin; experiment: properdin binding assay, comparison of Fc regions (FIG. 40)

Measured: binding

B1: NMT15 (antibody, V domains shown)
VH: QVQLVQSAPEVAKPGTSVKMSCKASGYIFTNYPIHWVKQAPGQGLEWIGFIDPGGGYDEPDERFRDRATLTADKSTSTAYMELSSLRSEDTAIYYCARRGGGYYLDYWGQGTLVTVSS
VL: DIQMTQSPSSLSASLGDRVTITCRASQDISFFLNWYQQKPDGTVKLLIYYTSRYHSGVPSRFSGSGSGTDFTLTISSLQPEDFATYFCQHGNTLPWTFGQGTKLEIK
binds: [1] | [2]

B2: NMT28 (antibody, V domains shown)
VH: EVQLVQSGAEVKKPGASVKVSCKASGYIFTNYPIHWVRQAPGQGLEWMGFIDPGGGYDEPDERFRDRVTMTADTSTSTAYMELSSLRSEDTAVYYCARRGGGYYLDYWGQGTLVTVSS
VL: B1 VL with L15V, D41G, G42K, T43A, V44P, F87Y, N92Q, L104V
binds: [3] | [4] | [5]

B3: NMT28-100 (antibody, V domains shown)
VH: B2 VH
VL: B1 VL with L15V, D41G, G42K, T43A, V44P, F87Y, N92Q, L104V
binds: [6] | [4] | [7] | [5]

B4: NMT28-101 (antibody, V domains shown)
VH: B2 VH
VL: B1 VL with L15V, D41G, G42K, T43A, V44P, F87Y, N92Q, L104V
binds: [6] | [4] | [7] | [5]
